Laboratory results reported in PubChem BioAssay AID504834 (National Center for Advancing Translational Sciences (NCATS), 2011).
Out of some 320,000 compounds screened, about 22,000 (6.9%) were called active. The shares of active, inactive and inconclusive entries below differ from those in the screen. Calls follow the shape of the dose curve; as a rule, active = well fitted inhibition curve with a large enough effect; inconclusive = small, poorly fitted or top-dose-only effect, or another doubt; inactive = no such curve, though single readings can be large or run the other way. Potencies beside an inconclusive call are fits to weak or partial responses and may not hold up.

Assay: Primary qHTS for delayed death inhibitors of the malarial parasite plastid, 96 hour incubation
Details: P. falciparum luciferase reporter growth; series mostly up to 28.7 µM; activity change, negative = inhibition: at the top concentration
Procedure, shortened: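 Readout is luminescence from an integrated firefly luciferase in P. falciparum. Red cells, 2% hematocrit and 0.05% parasitemia final, were cultured with compound through two parasite generations (96 hours) at 37 C, 5% CO2.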
% is scaled to controls: 0 for no effect and ±100 for the full control effect; potency is read from the fitted curve at half-maximal effect.

SMILES	Potency	activity change, negative = inhibition
O=C1NC(c2ccc(-c3ccccc3[N+](=O)[O-])o2)C(C(=O)c2ccc(F)cc2)C(O)(C(F)(F)F)N1 (stereo not drawn)	inconclusive: 18.5 µM [inhibitor, single point]	
Cc1ccc(S(=O)(=O)N2CCOCC2)cc1C(=O)OCCOc1cccc(Cl)c1	active: 10.4 µM	
CC(=O)c1cc(NC(=O)c2cccc(C(F)(F)F)c2)c(=O)oc1/C=C/N(C)C		inactive: 48.1%
CC1CCC(NC(=O)Cn2c(=O)oc3cc(S(=O)(=O)N4CCCC4)ccc32)CC1 (stereo not drawn)	inconclusive: 1.17 µM [inhibitor, full curve]	
Cc1ccc(NC(=S)N2CCC(N(C)CC3CCCO3)CC2)c(C)c1 (stereo not drawn)		inactive: 21.3%
COC(=O)C1=C(c2ccccc2OCc2ccccc2)C[C@@H]2CC[C@H]1N2C(=O)NCc1ccc(Br)cc1	inconclusive: 0.0131 µM [inhibitor, full curve, poor fit]	
Nc1nc(-c2ccc(Cl)cc2)cn1N		inactive: -0.401%
COc1cc([N+](=O)[O-])ccc1NC(=O)NNC(=O)C(C)Oc1ccc(F)cc1F (stereo not drawn)	inconclusive: 10.4 µM [inhibitor, single point]	
CCOC(=O)c1ccc(NC(=S)N(CCN(C)C)Cc2cccs2)cc1		inactive: -6.58%
CCn1nc(C(=O)N[C@@H](CCSC)c2nc3ccccc3[nH]2)c2ccccc2c1=O	inconclusive: 16.5 µM [inhibitor, single point]	
O=C(NCc1ccccc1Cl)C1CCC(=O)N(CC2CCCCC2)C1 (stereo not drawn)		inactive: 15.9%
C/C(=N\NC(=O)c1cc2ccccc2cc1O)c1cccs1		inactive: 12.5%
CSc1nc2ccccc2n1Cc1cccc([N+](=O)[O-])c1	inconclusive: 9.28 µM [inhibitor, partial curve, poor fit]	
CS/C(=N\N(C)C(N)=O)c1ccccc1		inactive: 4.99%
O=C(CCn1c(=O)oc2ccccc21)Nc1ccccc1		inactive: -14.4%
CCCCCCOc1ccc(OC(=O)c2cccnc2)cc1		inactive: 42.3%
Cc1cc(C)c(NC(=O)CSc2nnc(-c3ccccn3)n2N)c(Cl)c1		inactive: -0.784%
Cc1ccc(S(=O)(=O)N(C)CC(=O)N2CCN(Cc3ccc4c(c3)OCO4)CC2)cc1	inconclusive: 13.1 µM [inhibitor, single point]	
COc1ccc(OC)c2[nH]c(=O)c(CCNC(=O)C(=O)c3c(C)[nH]c4ccccc34)cc12	inconclusive: 1.04 µM [inhibitor, partial curve, poor fit]	
COc1cc(CNCc2ccccn2)ccc1OCc1c(Cl)cccc1Cl	inconclusive: 3.7 µM [inhibitor, full curve, poor fit]	
CCCCC(=O)N1C/C=C\C(c2ccc(OC)cc2)N(Cc2ccc(F)cc2)C(=O)C1 (stereo not drawn)	inconclusive: 11.7 µM [inhibitor, single point]	
CC(C)C/C(O)=C/c1nc2cc(Cl)ccc2oc1=O	inconclusive: 10.4 µM [inhibitor, partial curve, poor fit]	

SMILES	Potency	activity change, negative = inhibition
Cc1ccc(NC(=O)CN2C(=O)S/C(=C\c3cc(C)n(-c4ccc(C(=O)O)cc4)c3C)C2=O)cc1	inconclusive: 9.28 µM [inhibitor, partial curve, poor fit]	
CCCCCOCC1CC(C/C(C)=N/Nc2nc(-c3ccccc3)cs2)C(=O)O1 (stereo not drawn)		inactive: 58.8%
O=C(COc1ccc(/C=N/NC(=O)c2cc3ccccc3o2)cc1Cl)Nc1ccccc1	active: 7.38 µM	
Cc1ccc(CC(=O)NCCC(=O)O)cc1		inactive: 18.6%
CCOC(=O)c1c(NC(=O)C2C3C=CC(C3)C2C(=O)O)sc2c1CCC(C)C2 (stereo not drawn)	inconclusive: 18.5 µM [inhibitor, single point]	
CCOc1ncccc1C(=O)N1CCN(S(=O)(=O)c2ccc(Br)cc2Cl)CC1	inconclusive: 20.8 µM [inhibitor, partial curve, poor fit]	
C=CCn1c(Cc2csc(N)n2)nnc1SCc1ccc(C(=O)OC)cc1		inactive: -12.9%
Cc1ccc(NC(=O)C2CCCN2C(=O)NCc2ccccc2)cc1 (stereo not drawn)		inactive: 71.9%
C#CCOCCOCCOCCNc1nc(N2CCN(C(=O)[C@H]([C@@H](C)CC)n3cc(CCCN=C(N)N)nn3)CC2)nc(N2CCN(C(=O)[C@H](Cc3ccc(O)cc3)n3cc(CCO)nn3)CC2)n1	inconclusive: 18.5 µM [inhibitor, single point]	
CCn1c(CCNC(=O)c2cccs2)nnc1SCC(=O)Nc1nc(-c2ccccc2)cs1	inconclusive: 11.7 µM [inhibitor, partial curve, poor fit]	
O=C(Nc1ccccc1C(=O)N/N=C/c1ccco1)c1ccc(Cl)cc1	inconclusive: 18.5 µM [inhibitor, single point]	
Cc1ccccc1NC(=S)NC(NC(=O)COc1ccccc1)C(Cl)(Cl)Cl (stereo not drawn)	inconclusive: 20.8 µM [inhibitor, partial curve, poor fit]	
CCN(CC)CCCN(C(=O)Cn1nnc(-c2ccc(OC)c(OC)c2)n1)C(C(=O)NC(C)(C)C)c1ccc(F)cc1 (stereo not drawn)	inconclusive: 4.65 µM [inhibitor, partial curve, poor fit]	
COc1cc(/C=C2\SC(=S)N(NS(=O)(=O)c3ccc(C)cc3)C2=O)cc(OC)c1OC	inconclusive: 0.0828 µM [inhibitor, full curve, poor fit]	
COc1ccc(-n2c(SCC(=O)NCC3CCCO3)nc3c(c2=O)SC(C)C3)cc1 (stereo not drawn)	inconclusive: 4.65 µM [inhibitor, partial curve]	
COc1ccc2sc(C)[n+](C)c2c1	inconclusive: 0.415 µM [inhibitor, full curve, poor fit]	
Cc1ccc(CNS(=O)(=O)c2ccccc2[N+](=O)[O-])cc1		inactive: 224%
Cc1cccc(C)c1NC(=O)CSc1nnc(Cc2ccccc2)o1	active: 11.7 µM	
CN[C@H](C)CCC=C(C)C	inconclusive: 3.01 µM [inhibitor, full curve, poor fit]	
O=C(NC1CCCC1)c1cc(-c2ccccc2)nc2ccccc12	inconclusive: 10.4 µM [inhibitor, single point]	
CC(Oc1ccccc1)C(=O)NC1=NCCS1 (stereo not drawn)	inconclusive: 13.1 µM [inhibitor, single point]	
O=C(O)c1ccccc1OCCOc1ccccc1		inactive: -15.2%
COc1cc2c(C(=O)N3CCN(c4ccccc4F)CC3)cn(C)c(=O)c2cc1OC	inconclusive: 11.7 µM [inhibitor, single point]	

SMILES	Potency	activity change, negative = inhibition
COc1cccc(N(C(=O)c2snc(C(N)=O)c2N)C(C(=O)NCC2CCCO2)c2cccs2)c1 (stereo not drawn)	inconclusive: 5.86 µM [inhibitor, partial curve, poor fit]	
Cc1ccccc1-c1cc(C(=O)NCc2cccs2)nn1CC1CC(c2cccc([N+](=O)[O-])c2)=NO1 (stereo not drawn)	active: 2.08 µM	
Nc1cc(=O)[nH]c(SCCOc2ccccc2)n1	inconclusive: 10.4 µM [inhibitor, partial curve]	
CC(C)=N/N=C(/c1ccc([N+](=O)[O-])cc1)C12CN3CN(CN(C3)C1)C2	active: 13.1 µM	
O=C(Nc1ccc(Nc2ccncc2)cc1)c1ccc([N+](=O)[O-])cc1	active: 1.65 µM	
Cc1ccc2oc(=O)c(/C=C(\O)c3sc(C)nc3C)nc2c1	active: 10.4 µM	
O=C(Cn1c(=O)n(Cc2ccco2)c(=O)c2c3c(sc21)CCCCC3)Nc1ccccc1	active: 11.7 µM	
COc1cc(/C=N/Nc2ccccn2)ccc1O		inactive: 27.5%
CCc1cc(-c2n[nH]c(CCC(=O)O)c2-c2nc3ccccc3n2C)c(O)cc1O	inconclusive: 20.8 µM [inhibitor, single point]	
C#CCOCCOCCOCCNc1nc(N2CCN(C(=O)[C@H]([C@@H](C)CC)n3cc([C@@H](N)CO)nn3)CC2)nc(N2CCN(C(=O)[C@H](Cc3ccc(O)cc3)n3cc([C@@H](N)CC(C)C)nn3)CC2)n1		inactive: 0.491%
O=C(/C=C/Nc1ccc(F)cc1F)c1cccs1	inconclusive: 18.5 µM [inhibitor, single point]	
CCCC(=O)c1cc2c(cc1NC(=O)c1cccs1)OCCO2	inconclusive: 13.1 µM [inhibitor, partial curve, poor fit]	
Cc1cc(S(=O)(=O)NCc2ccncc2)c(C)cc1Br	inconclusive: 18.5 µM [inhibitor, single point]	
CC1(C)CC(=O)C2=C(C1)OC(N)=C(C#N)C2c1ccccc1 (stereo not drawn)	inconclusive: 18.5 µM [inhibitor, single point]	
O=C(COC(=O)c1ccccn1)NCc1ccccc1Cl	inconclusive: 18.5 µM [inhibitor, single point]	
Cc1onc(-c2ccccc2)c1C(=O)NC(=S)NNC(=O)c1ccc(O)cc1O	inconclusive: 2.08 µM [inhibitor, full curve, poor fit]	
CC1CN(Cc2ccccc2)c2ccccc2NC1=S (stereo not drawn)	inconclusive: 7.38 µM [inhibitor, partial curve, poor fit]	
CC(C)Cn1c(N)c(C(=O)CSc2nnc(-c3ccco3)n2C)c(=O)n(C)c1=O	active: 1.31 µM	
COc1ccc(-c2nnc(-c3cc4ccccc4oc3=O)o2)cc1	active: 11.7 µM	
CCSC1=N/C(=C\c2ccc3c(c2)OCO3)C(=O)S1		inactive: 56%
O=C(CC1SC(N2CCCC2)=NC1=O)Nc1ccc(C(=O)Nc2ncccc2O)cc1 (stereo not drawn)	inconclusive: 14.7 µM [inhibitor, partial curve, poor fit]	
Cc1oc2cc3oc(=O)c(CCC(=O)NCCN4CCOCC4)c(C)c3cc2c1C	active: 10.4 µM	

In the list so far, 17 contain four or more nitrogen atoms:
SMILES	Potency	activity change, negative = inhibition
Nc1nc(-c2ccc(Cl)cc2)cn1N		inactive: -0.401%
COc1cc([N+](=O)[O-])ccc1NC(=O)NNC(=O)C(C)Oc1ccc(F)cc1F (stereo not drawn)	inconclusive: 10.4 µM [inhibitor, single point]	
CCn1nc(C(=O)N[C@@H](CCSC)c2nc3ccccc3[nH]2)c2ccccc2c1=O	inconclusive: 16.5 µM [inhibitor, single point]	
Cc1cc(C)c(NC(=O)CSc2nnc(-c3ccccn3)n2N)c(Cl)c1		inactive: -0.784%
C=CCn1c(Cc2csc(N)n2)nnc1SCc1ccc(C(=O)OC)cc1		inactive: -12.9%
C#CCOCCOCCOCCNc1nc(N2CCN(C(=O)[C@H]([C@@H](C)CC)n3cc(CCCN=C(N)N)nn3)CC2)nc(N2CCN(C(=O)[C@H](Cc3ccc(O)cc3)n3cc(CCO)nn3)CC2)n1	inconclusive: 18.5 µM [inhibitor, single point]	
CCn1c(CCNC(=O)c2cccs2)nnc1SCC(=O)Nc1nc(-c2ccccc2)cs1	inconclusive: 11.7 µM [inhibitor, partial curve, poor fit]	
CCN(CC)CCCN(C(=O)Cn1nnc(-c2ccc(OC)c(OC)c2)n1)C(C(=O)NC(C)(C)C)c1ccc(F)cc1 (stereo not drawn)	inconclusive: 4.65 µM [inhibitor, partial curve, poor fit]	
COc1cccc(N(C(=O)c2snc(C(N)=O)c2N)C(C(=O)NCC2CCCO2)c2cccs2)c1 (stereo not drawn)	inconclusive: 5.86 µM [inhibitor, partial curve, poor fit]	
Cc1ccccc1-c1cc(C(=O)NCc2cccs2)nn1CC1CC(c2cccc([N+](=O)[O-])c2)=NO1 (stereo not drawn)	active: 2.08 µM	
CC(C)=N/N=C(/c1ccc([N+](=O)[O-])cc1)C12CN3CN(CN(C3)C1)C2	active: 13.1 µM	
O=C(Nc1ccc(Nc2ccncc2)cc1)c1ccc([N+](=O)[O-])cc1	active: 1.65 µM	
CCc1cc(-c2n[nH]c(CCC(=O)O)c2-c2nc3ccccc3n2C)c(O)cc1O	inconclusive: 20.8 µM [inhibitor, single point]	
C#CCOCCOCCOCCNc1nc(N2CCN(C(=O)[C@H]([C@@H](C)CC)n3cc([C@@H](N)CO)nn3)CC2)nc(N2CCN(C(=O)[C@H](Cc3ccc(O)cc3)n3cc([C@@H](N)CC(C)C)nn3)CC2)n1		inactive: 0.491%
Cc1onc(-c2ccccc2)c1C(=O)NC(=S)NNC(=O)c1ccc(O)cc1O	inconclusive: 2.08 µM [inhibitor, full curve, poor fit]	
CC(C)Cn1c(N)c(C(=O)CSc2nnc(-c3ccco3)n2C)c(=O)n(C)c1=O	active: 1.31 µM	
O=C(CC1SC(N2CCCC2)=NC1=O)Nc1ccc(C(=O)Nc2ncccc2O)cc1 (stereo not drawn)	inconclusive: 14.7 µM [inhibitor, partial curve, poor fit]	
